Survivor count and T/C data for eleven molecules are collected here from PubChem BioAssay AID270 (DTP/NCI, 2004).

This assay has as its system BDF1 mice, s.c. Lewis lung carcinoma, T/C %. Description: NCI In Vivo Anticancer Drug Screen. Data for tumor model Lewis Lung Carcinoma (subcutaneous) in B6D2F1 (BDF1) mice. In a few lines:
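Readout: survival or tumor size, expressed as treated (T) over vehicle control (C). Transplantable tumor implanted in mice; compound given to the treated group.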

Setting [1] is: T/C endpoint: mean tumor weight, dose: 0.86 mg/kg/injection, schedule: Q01DX011 (ip), vehicle: saline, higher T/C = larger tumour.
Where [2] appears, read: T/C endpoint: mean tumor weight, dose: 1.3 mg/kg/injection, schedule: Q01DX011 (ip), vehicle: saline, higher T/C = larger tumour.
The mark [3] stands for this setting: T/C endpoint: mean tumor weight, dose: 2.0 mg/kg/injection, schedule: Q01DX011 (ip), vehicle: saline, higher T/C = larger tumour.

The list does not hold the whole screen: it is rich in T/C values a quarter to a half above the control, in often repeated tests (any T/C) and in doses without a T/C. Further doses and runs are listed elsewhere. T/C gives the treated animals as a percentage of the vehicle group. Schedules are NCI's codes, read here as Q, the interval in days (D) or hours (H), X, the number of doses. Some entries give survivors of the animals treated and no T/C: the source holds a T/C of zero for them, seemingly a mark for toxic or unscored doses. Some survivor counts are full or nearly so, which does not show that the dose was tolerated: the source hardly ever lists a survival T/C far under the control, and the zero likely stands for such cases as well. Survivors were counted at the toxicity check, usually on the fifth day, unless a day is given; later deaths do not show. Some doses were run more than once; the results are listed from low to high. For survival time, the PubChem record calls one and a half times the control and up active, and a quarter to a half above the control has no call in these data; cut-offs in other NCI protocols can differ. Some T/C values carry the count of animals alive at the toxicity check (mostly the fifth day); where none is given, no animal had died by that day.

Regarding `Nc1nc(N)c(N=O)c(Nc2ccc(Br)cc2)n1`, the survivor count (T/C endpoint: mean tumor weight, dose: 480.0 mg/kg/injection, schedule: Q01DX011 (ip), vehicle: other, higher T/C = larger tumour) is listed as 2 of 6.
In the case of `CC(=O)OC(C)(C)/C=C/C(=O)[C@](C)(O)[C@H]1[C@H](O)C[C@@]2(C)[C@@H]3CC=C4[C@@H](C[C@H](O)C(=O)C4(C)C)[C@]3(CO)C(=O)C[C@]12C`, the survivor count under setting [1] was 3 of 6, the survivor count under setting [2] is 2 of 6 and the survivor count under setting [3] is reported as 0 of 6.
As for `O=C(O)C(O)C(O)C1[O][Sb][O]C1CO` (stereo not given), the survivor count was 8 of 10 (T/C endpoint: median survival time, dose: 200.0 mg/kg/injection, schedule: Q01DX009 (ip), vehicle: saline, higher T/C = longer survival) and 1 of 10 (T/C endpoint: median survival time, dose: 400.0 mg/kg/injection, schedule: Q01DX009 (ip), vehicle: saline, higher T/C = longer survival).
For the molecule `C=CC(=O)[O][Pb]([CH3])([CH3])[CH3]`, the T/C is 130 % of control [8 of 9 alive] (T/C endpoint: median survival time, dose: 0.75 mg/kg/injection, schedule: Q01DX009 (ip), vehicle: saline with Tween-80, higher T/C = longer survival) and 133 % of control [9 of 10 alive] (T/C endpoint: median survival time, dose: 1.5 mg/kg/injection, schedule: Q01DX009 (ip), vehicle: saline with Tween-80, higher T/C = longer survival). In addition, the survivor count is given as 10 of 10 (T/C endpoint: median survival time, dose: 3.0 mg/kg/injection, schedule: Q01DX009 (ip), vehicle: saline with Tween-80, higher T/C = longer survival); 10 of 10 (T/C endpoint: median survival time, dose: 6.0 mg/kg/injection, schedule: Q01DX009 (ip), vehicle: saline with Tween-80, higher T/C = longer survival); 4 of 10 (T/C endpoint: median survival time, dose: 12.0 mg/kg/injection, schedule: Q01DX009 (ip), vehicle: saline with Tween-80, higher T/C = longer survival).
`CCN(CC)CC(C)Nc1ccc(C)c2sc3ccccc3c(=O)c12` (stereo not given): the T/C (T/C endpoint: mean tumor weight, dose: 20.0 mg/kg/injection, schedule: Q01DX011 (ip), vehicle: other, evaluated on day 12, higher T/C = larger tumour) is 147 % of control. Also, the survivor count (T/C endpoint: mean tumor weight, dose: 240.0 mg/kg/injection, schedule: Q01DX011 (ip), vehicle: other, higher T/C = larger tumour) is recorded as 1 of 6 and the survivor count (T/C endpoint: mean tumor weight, dose: 320.0 mg/kg/injection, schedule: Q01DX011 (ip), vehicle: other, higher T/C = larger tumour) is 0 of 6.
As to `Nc1nc(=S)c2ncn(C3CC(O)C(CO)O3)c2[nH]1` (stereo not given), under “T/C endpoint: median survival time, dose: 32.0 mg/kg/injection, schedule: Q01DX009 (ip), vehicle: saline, higher T/C = longer survival”, the T/C was 149 % of control.
For the molecule `Fc1ccc(CSc2ncnc3c2ncn3C2CCCCO2)cc1` (stereo not given), the survivor count (T/C endpoint: mean tumor weight, dose: 600.0 mg/kg/injection, schedule: Q01DX011 (ip), vehicle: other, higher T/C = larger tumour) is listed as 0 of 6.
As to `Fc1ccc(NC(=S)Nc2cc(Cl)cc(Cl)c2)cc1`, the survivor count (T/C endpoint: mean tumor weight, dose: 30.0 mg/kg/injection, schedule: Q01DX011 (ip), vehicle: carboxymethylcellulose (CMC), higher T/C = larger tumour) is 3 of 6 and the survivor count (T/C endpoint: mean tumor weight, dose: 60.0 mg/kg/injection, schedule: Q01DX011 (ip), vehicle: carboxymethylcellulose (CMC), higher T/C = larger tumour) is reported as 2 of 6.
As for `CC(=O)OC(C)(C)/C=C/C(=O)[C@](C)(O)[C@H]1[C@H](O)C[C@@]2(C)[C@@H]3CC=C4[C@@H](C[C@H](O)C(=O)C4(C)C)[C@]3(C)C(=O)C[C@]12C`, the survivor count is, setting by setting: (T/C endpoint: mean tumor weight, dose: 0.57 mg/kg/injection, schedule: Q01DX011 (ip), vehicle: saline, higher T/C = larger tumour) 1 of 6 and 2 of 6; (T/C endpoint: mean tumor weight, dose: 0.8 mg/kg/injection, schedule: Q01DX011 (ip), vehicle: carboxymethylcellulose (CMC), higher T/C = larger tumour) 0 of 4; under setting [1], 0 of 6; under setting [2], 0 of 6; (T/C endpoint: mean tumor weight, dose: 1.6 mg/kg/injection, schedule: Q01DX011 (ip), vehicle: carboxymethylcellulose (CMC), higher T/C = larger tumour) 0 of 4; under setting [3], 0 of 6.
For `NC(N)=Nc1nc2ccccc2s1`, the T/C (T/C endpoint: mean tumor weight, dose: 6.25 mg/kg/injection, schedule: Q01DX011 (ip), vehicle: saline, evaluated on day 12, higher T/C = larger tumour) was 129 % of control and the T/C (T/C endpoint: mean tumor weight, dose: 25.0 mg/kg/injection, schedule: Q01DX011 (ip), vehicle: saline, evaluated on day 12, higher T/C = larger tumour) is 136 % of control. The survivor count (T/C endpoint: mean tumor weight, dose: 12.5 mg/kg/injection, schedule: Q01DX011 (ip), vehicle: saline, higher T/C = larger tumour) is reported as 0 of 6.
Take `CC12CCC(C1)C(C)(C)C2NCCCN1C(=O)c2ccc3c4c(ccc(c24)C1=O)C(=O)N(CCCNC1C2(C)CCC(C2)C1(C)C)C3=O` (stereo not given): the T/C by setting is: (T/C endpoint: median survival time, dose: 6.25 mg/kg/injection, schedule: Q01DX009 (ip), vehicle: Klucel (hydroxypropylcellulose) (HPC), higher T/C = longer survival) 132 % of control; (T/C endpoint: median survival time, dose: 12.5 mg/kg/injection, schedule: Q01DX009 (ip), vehicle: Klucel (hydroxypropylcellulose) (HPC), higher T/C = longer survival) 138 % of control; (T/C endpoint: median survival time, dose: 25.0 mg/kg/injection, schedule: Q01DX009 (ip), vehicle: Klucel (hydroxypropylcellulose) (HPC), higher T/C = longer survival) 127 % of control [9 of 10 alive].
